Laboratory results reported in patent US20260053716A1, “COMPOSITION FOR DENTIN ADHESION AND COMPOSITION FOR PULP RESTORATION, EACH COMPOSITION CONTAINING CPNE7-DERIVED PEPTIDE” (HYSENSBIO CO., LTD, priority 2022, published 2026).
Part of at least one peptide drawing is inferred or uncertain, most often the ends. Ends that are not written are not given here.

Columns and labels:
[1] = tested on: human pulp cells; experiment: Expression of odontogenic differentiation marker genes and CPNE7 gene by date, composition for pulp restoration (RT-PCR); type: cell-based
[2] = tested on: cervical region of a beagle's tooth with exposed dentin; experiment: Histological evaluation (H&E) of tubular dentin regeneration ability; type: in vivo
[3] = tested on: human pulp cells; experiment: Wound healing ability and cell migration ability; type: cell-based; conditions: both MTA and KH001, 24 hours, vs control
[4] = tested on: human pulp cells; experiment: Odontogenic differentiation and mineralization, Alizarin red staining (ARS); type: cell-based
[5] = tested on: human pulp cells (hDPC); experiment: Odontogenic differentiation marker gene expression (RT-PCR) after treatment with composition for dentin adhesion; type: cell-based
[6] = day 7 of differentiation, MTA + KH001 10 μg/ml vs MTA alone
[7] = day 14, MTA + KH001 10 μg/ml vs MTA only
[8] = KH001 10 μg/ml in ABU diluted 1:5000, vs control

**Q.** Which results are given for KYKQKRRSYK [KH001, KYKQKRRSYK]?
**A.** expression of BSP ([1]; both days 7 and 14, MTA + KH001 10 μg/ml vs MTA only): did not increase significantly; expression level of CPNE7 [1, 6]: significantly increased; expression level of DMP1 [1, 6]: significantly increased; expression of CPNE7 gene [1, 7]: significantly higher; expression of DMP1 gene [1, 7]: significantly higher; expression of DSPP gene [1, 7]: significantly higher; formation of tubular dentin ([2]; experimental group (II), containing 5 μg/ml of KH001 in dentin adhesive): tubular dentin was formed toward the pulp below the dentin damage area; formation of tubular dentin ([2]; experimental group (III), containing 10 μg/ml of KH001 in dentin adhesive): tubular dentin was formed toward the pulp below the dentin damage area; state of pulp adjacent to the newly formed tubular dentin ([2]; groups with KH001-containing dentin adhesive): odontoblasts were arranged in a fence-like shape; cell migration ability [3]: tended to recover to a level similar to the control; absorbance (ARS, 405 nm) ([4]; day 7 and day 14, MTA and KH001 vs control): increased statistically significantly; mineralization level ([4]; day 14, MTA and KH001 vs group treated with only MTA): statistically significant difference; expression of BSP mRNA, increase [5, 8]: more than 2.5 times; expression of DMP1 mRNA, increase [5, 8]: more than 2.5 times; expression of DSPP mRNA, increase [5, 8]: more than 2.5 times; expression levels of odontogenic differentiation marker genes, DSPP, BSP, and DMP1 ([5]; as the concentration of KH001 increased (5 and 10 μg/ml in ABU diluted 1:5000)): increased
